{"source": "the supplement of paper PMC4604168 (melanoma cell lines)", "note": "This is one part of the list. Repeats are few or missing, and single values can be far off.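 The apoptosis fraction was the count of cleaved-PARP antibody-stained nuclei relative to all DNA-stained nuclei, imaged in 1,536-well plates. Screening doses were set so most cells survived, and baseline and induced cleaved-PARP levels vary greatly across cell lines.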", "data": [{"test_system": "RPMI7951", "assay": "cleaved PARP positive nuclei fraction relative to DMSO control; melanoma cells; higher = more apoptosis", "details": "library dose: low library concentration; 72 h", "units": {"cleaved PARP positive nuclei fraction": "%"}, "values": [{"compound": "O=C(O)[C@@H]1[O][Sb](=[O])([O][Sb]2(=[O])[O][C@H]([C@H](O)CO)[C@H](O)[C@H](C(=O)O)[O]2)[O][C@H]([C@H](O)CO)[C@@H]1O", "note": "(some centres undefined) [stibogluconate] + OCCn1cc(-c2cnc3nnn(Cc4ccc5ncccc5c4)c3n2)cn1 [PF04217903] (first compound 2 µM, partner dose 1 µM)", "cleaved PARP positive nuclei fraction": 67.2}, {"compound": "C[C@@H](Oc1cc(-c2cnn(C3CCNCC3)c2)cnc1N)c1c(Cl)ccc(F)c1Cl", "note": "[Crizotinib] + Oc1cc(-c2nc(-c3ccccc3)[nH]c2-c2ccncc2)ccc1Cl [L779450] (first compound 0.2 µM, partner dose 0.2 µM)", "cleaved PARP positive nuclei fraction": 54.1}, {"compound": "C[C@@H](Oc1cc(-c2cnn(C3CCNCC3)c2)cnc1N)c1c(Cl)ccc(F)c1Cl", "note": "[Crizotinib] + CCCCCCCCCCCC1=C(O)C(=O)C=C(O)C1=O [Embelin] (first compound 0.2 µM, partner dose 1.2 µM)", "cleaved PARP positive nuclei fraction": 124}, {"compound": "Nc1ncn([C@H]2C[C@H](O)[C@@H](CO)O2)c(=O)n1", "note": "[decitabine] + O=C(Nc1ccccc1)c1cc([N+](=O)[O-])ccc1Cl [GW9662] (first compound 0.1 µM, partner dose 2 µM)", "cleaved PARP positive nuclei fraction": 40.5}, {"compound": "C[C@@H](Oc1cc(-c2cnn(C3CCNCC3)c2)cnc1N)c1c(Cl)ccc(F)c1Cl", "note": "[Crizotinib] + O=c1cc(-c2cccc3c2Sc2ccccc2S3)oc(N2CCOCC2)c1 [KU55933] (first compound 0.2 µM, partner dose 1 µM)", "cleaved PARP positive nuclei fraction": 74}, {"compound": "CS(=O)(=O)CCNCc1ccc(-c2ccc3ncnc(Nc4ccc(OCc5cccc(F)c5)c(Cl)c4)c3c2)o1", "note": "[lapatinib] + OCCn1cc(-c2cnc3nnn(Cc4ccc5ncccc5c4)c3n2)cn1 [PF04217903] (first compound 0.8 µM, partner dose 1 µM)", "cleaved PARP positive nuclei fraction": 95.5}, {"compound": "Cc1cc(Nc2cc(N3CCN(C)CC3)nc(/C=C/c3ccccc3)n2)n[nH]1", "note": "+ N#Cc1c(O)c2c(-c3ccc(-c4ccccc4O)cc3)csc2[nH]c1=O [A769662] (first compound 0.04 µM, partner dose 2 µM)", "cleaved PARP positive nuclei fraction": 62.6}, {"compound": "CCCS(=O)(=O)Nc1ccc(F)c(C(=O)c2c[nH]c3ncc(Cl)cc23)c1F", "note": "+ COc1cc2ncnc(Nc3ccc(Oc4ccccc4)cc3)c2cc1OC [SrcI1] (first compound 0.08 µM, partner dose 2 µM)", "cleaved PARP positive nuclei fraction": 45.9}, {"compound": "Nc1nc(F)nc2c1ncn2[C@@H]1O[C@H](CO)[C@@H](O)[C@@H]1O", "note": "[fludarabine] + CO[C@@H]1[C@H](N(C)C(=O)c2ccccc2)C[C@H]2O[C@]1(C)n1c3ccccc3c3c4c(c5c6ccccc6n2c5c31)C(=O)NC4 [Midostaurin] (first compound 0.2 µM, partner dose 0.08 µM)", "cleaved PARP positive nuclei fraction": 221}, {"compound": "Nc1ncn([C@H]2C[C@H](O)[C@@H](CO)O2)c(=O)n1", "note": "[decitabine] + O=C(O)c1ccc(-c2c[nH]c3ncc(-c4ccccc4)cc23)cc1C1CCCC1 [GSK650394] (first compound 0.1 µM, partner dose 0.16 µM)", "cleaved PARP positive nuclei fraction": 123}, {"compound": "CN1CCN(c2ccc3nc(-c4c(N)c5c(F)cccc5[nH]c4=O)[nH]c3c2)CC1", "note": "[Dovitinib] + Oc1cc(-c2nc(-c3ccccc3)[nH]c2-c2ccncc2)ccc1Cl [L779450] (first compound 0.1 µM, partner dose 0.2 µM)", "cleaved PARP positive nuclei fraction": 42.4}, {"compound": "CS(=O)(=O)CCNCc1ccc(-c2ccc3ncnc(Nc4ccc(OCc5cccc(F)c5)c(Cl)c4)c3c2)o1", "note": "[lapatinib] + O=S(=O)(c1ccccc1)N(CC(F)(F)F)c1ccc(C(O)(C(F)(F)F)C(F)(F)F)cc1 [T0901317] (first compound 0.8 µM, partner dose 1.4 µM)", "cleaved PARP positive nuclei fraction": 92.5}, {"compound": "CNC(=O)c1cc(Oc2ccc(NC(=O)Nc3ccc(Cl)c(C(F)(F)F)c3)cc2)ccn1", "note": "[sorafenib] + O=C(O)c1ccc(-c2c[nH]c3ncc(-c4ccccc4)cc23)cc1C1CCCC1 [GSK650394] (first compound 0.4 µM, partner dose 0.16 µM)", "cleaved PARP positive nuclei fraction": 91.1}, {"compound": "CC(C)C[C@H](NC(=O)[C@H](Cc1ccccc1)NC(=O)c1cnccn1)B(O)O", "note": "[Bortezomib] + NC(=O)Nc1cc(-c2cccc(F)c2)sc1C(=O)N[C@H]1CCCNC1 [AZD7762] (first compound 0.001 µM, partner dose 0.02 µM)", "cleaved PARP positive nuclei fraction": 72.2}]}]}
